T1: CUL3a, yeast two-hybrid construct (Arabidopsis thaliana, UniProt Q9ZVH4 1-732, limits assumed)
T1 construct: Yeast two-hybrid fusion; also called cullin 3a
T1 sequence (looked up): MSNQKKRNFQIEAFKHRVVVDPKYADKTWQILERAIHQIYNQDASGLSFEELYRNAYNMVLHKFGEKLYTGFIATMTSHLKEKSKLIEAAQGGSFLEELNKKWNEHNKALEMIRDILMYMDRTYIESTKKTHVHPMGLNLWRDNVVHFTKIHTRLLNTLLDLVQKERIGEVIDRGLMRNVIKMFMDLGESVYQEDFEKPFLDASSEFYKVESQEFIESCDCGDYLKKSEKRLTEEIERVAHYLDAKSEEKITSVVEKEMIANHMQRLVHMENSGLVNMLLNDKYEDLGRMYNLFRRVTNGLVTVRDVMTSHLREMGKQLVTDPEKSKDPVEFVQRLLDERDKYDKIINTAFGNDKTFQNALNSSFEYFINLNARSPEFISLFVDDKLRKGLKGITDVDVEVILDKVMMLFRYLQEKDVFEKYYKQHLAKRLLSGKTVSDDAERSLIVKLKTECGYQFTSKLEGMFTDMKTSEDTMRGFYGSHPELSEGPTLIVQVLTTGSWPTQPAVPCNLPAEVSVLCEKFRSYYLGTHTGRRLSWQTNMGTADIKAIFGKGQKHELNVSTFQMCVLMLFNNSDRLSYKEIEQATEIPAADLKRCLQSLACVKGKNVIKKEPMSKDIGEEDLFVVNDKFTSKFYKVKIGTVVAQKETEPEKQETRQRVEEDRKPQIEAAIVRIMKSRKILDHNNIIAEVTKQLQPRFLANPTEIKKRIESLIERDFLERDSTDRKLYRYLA

T2: BPM1 (At5 g19000), yeast two-hybrid construct (Arabidopsis thaliana, UniProt Q8L765 1-407, limits assumed)
T2 construct: also called BTB/POZ-MATH protein 1
T2 sequence (looked up): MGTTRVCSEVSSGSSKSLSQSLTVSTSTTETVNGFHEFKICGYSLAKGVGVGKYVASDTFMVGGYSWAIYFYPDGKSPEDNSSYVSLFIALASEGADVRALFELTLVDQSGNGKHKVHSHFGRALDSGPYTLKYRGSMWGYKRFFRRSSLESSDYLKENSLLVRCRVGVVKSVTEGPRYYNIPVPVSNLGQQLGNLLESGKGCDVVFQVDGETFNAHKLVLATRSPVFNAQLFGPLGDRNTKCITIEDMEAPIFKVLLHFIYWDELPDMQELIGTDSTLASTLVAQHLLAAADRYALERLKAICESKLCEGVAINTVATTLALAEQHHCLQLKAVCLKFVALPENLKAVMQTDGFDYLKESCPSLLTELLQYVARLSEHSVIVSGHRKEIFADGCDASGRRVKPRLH


Experiments:
[1] = target: T1, CUL3a, yeast two-hybrid construct; test: yeast two-hybrid
[2] = target: T2, BPM1 (At5 g19000), yeast two-hybrid …; test: yeast two-hybrid, BPM1 as prey

Row | binding result [1] | binding result [2] | Binder
1 | no binding | binds | RAV1 (At1 g13260), yeast two-hybrid construct (other, Arabidopsis thaliana, UniProt Q9ZWM9 1-344, looked up, Yeast two-hybrid fusion tested against BPM1 as prey) MESSSVDESTTSTGSICETPAITPAKKSSVGNLYRMGSGSSVVLDSENGVEAESRKLPSSKYKGVVPQPNGRWGAQIYEKHQRVWLGTFNEEDEAARAYDVAVHRFRRRDAVTNFKDVKMDEDEVDFLNSHSKSEIVDMLRKHTYNEELEQSKRRRNGNGNMTRTLLTSGLSNDGVSTTGFRSAEALFEKAVTPSDVGKLNRLVIPKHHAEKHFPLPSSNVSVKGVLLNFEDVNGKVWRFRYSYWNSSQSYVLTKGWSRFVKEKNLRAGDVVSFSRSNGQDQQLYIGWKSRSGSDLDAGRVLRLFGVNISPESSRNDVVGNKRVNDTEMLSLVCSKKQRIFHAS
2 | no binding | binds | DREB1a (At4 g25480), yeast two-hybrid construct (other, Arabidopsis thaliana, UniProt Q9M0L0 1-216, looked up, Yeast two-hybrid fusion tested against BPM1 as prey) MNSFSAFSEMFGSDYESSVSSGGDYIPTLASSCPKKPAGRKKFRETRHPIYRGVRRRNSGKWVCEVREPNKKTRIWLGTFQTAEMAARAHDVAALALRGRSACLNFADSAWRLRIPESTCAKDIQKAAAEAALAFQDEMCDATTDHGFDMEETLVEAIYTAEQSENAFYMHDEAMFEMPSLLANMAEGMLLPLPSVQWNHNHEVDGDDDDVSLWSY
3 | no binding |  | ERF1 (At3 g23240), yeast two-hybrid construct (other, Arabidopsis thaliana, UniProt Q8LDC8 1-218, looked up, Yeast two-hybrid fusion tested against BPM1 as prey) MDPFLIQSPFSGFSPEYSIGSSPDSFSSSSSNNYSLPFNENDSEEMFLYGLIEQSTQQTYIDSDSQDLPIKSVSSRKSEKSYRGVRRRPWGKFAAEIRDSTRNGIRVWLGTFESAEEAALAYDQAAFSMRGSSAILNFSAERVQESLSEIKYTYEDGCSPVVALKRKHSMRRRMTNKKTKDSDFDHRSVKLDNVVVFEDLGEQYLEELLGSSENSGTW
4 | no binding | binds | ERF4 (At3 g15210), yeast two-hybrid construct (other, Arabidopsis thaliana, UniProt O80340 1-222, looked up, Yeast two-hybrid fusion tested against BPM1 as prey) MAKMGLKPDPATTNQTHNNAKEIRYRGVRKRPWGRYAAEIRDPGKKTRVWLGTFDTAEEAARAYDTAARDFRGAKAKTNFPTFLELSDQKVPTGFARSPSQSSTLDCASPPTLVVPSATAGNVPPQLELSLGGGGGGSCYQIPMSRPVYFLDLMGIGNVGRGQPPPVTSAFRSPVVHVATKMACGAQSDSDSSSVVDFEGGMEKRSQLLDLDLNLPPPSEQA

— patent US20180010140A1 (WASHINGTON STATE UNIVERSITY, published 2018)
